The text below walks through data of patent US9359487B2, “Plasticizers based on mixed esters of succinate” (Proviron Holding N.V., priority 2012, dated 2016).

Series [1] is described as follows: Dry blend process efficiency (mixing time to dry blend). To be noted: 67 phr formula, 88° C.
The nature of series [2]: Transparency of transparent PVC film, plasticiser compatibility. To be noted: for Compatibilty: Transparency % Transparent: transparent PVC film, 50 phr plasticiser; for delta vs. ref. (transparency): versus DINP.
A short description of series [3]: Cold flex via glass transition temperature (Tg) of compression moulded sheets. To be noted: for (33 phr) Cold Flex via Tg / (67 phr) Cold Flex via Tg: compression moulded sheets.
A short description of series [4]: Shore A hardness of plastisole films. To be noted: for Plasticize Efficiency Shore A: plastisol film, 50 phr plasticizer, 200° C. 2 minutes, 1 mm.
Series [5] in a line: Plastisole gelation curve (viscosity vs. temperature, rheology meter). As to conditions: 100 phr PVC, 50 phr Plasticizer, 3 phr ESBO, 2 phr Ca/Zn Stab.; relative to reference DINP.
Series [6] is described as follows: Plastisole viscosity after 24 h and thickening. As to conditions: plastisol, 50 phr plasticizer; for viscosity after 24 h: relative to reference; for Thickening: relative to reference DINP.
The nature of series [7]: Shore A hardness of compression moulded sheets (dry blend compound). As to conditions: 67 phr formula.

Take `CC(C)CCCCCCOC(=O)c1ccccc1C(=O)OCCCCCCC(C)C` [DINP, Di-isononylphthalate]: in series [1], the “Dry Blend Process efficiency (mixing time), # min. to dry blend” value amounted to 5.8 min. Besides, in series [2], the “Compatibilty: Transparency % Transparent” value is listed as 88.30%. Further, in series [3], the “(33 phr) Cold Flex via Tg” value was −11.5 and the “(67 phr) Cold Flex via Tg” value is on record as −46. For the same compound, the “Plasticize Efficiency % Difference vs. DOA” value in series [4] (Shore A, plastisol, 50 phr) is −6.67%. Also, the “Plasticize Efficiency Shore A” value in series [4] was found to be 80 Shore A.
On to `CC(C)CCCCCCOC(=O)CCC(=O)OCCCCCCC(C)C` [DINS, diisononylsuccinate], for which, in series [2], the “Compatibilty: Transparency % Transparent” value amounted to 77.60% and the “delta vs. ref. (transparency)” value was −12.12%.
`CCCCC(CC)COC(=O)CCCCC(=O)OCC(CC)CCCC` (stereo not shown) [DOA, Di-octyladepate]: in series [5], the “Gelation (Visc. vs. Temp.)” value was “slower”. Also, in series [6], the “viscosity after 24 h” value is “signif. lower” and the Thickening result is recorded as “slightly higher”. Moreover, in series [3], the “Delta versus DINP (%) (33 phr Cold Flex)” value was found to be 318%, the “(33 phr) Cold Flex via Tg” value is −48.1, the “Delta versus DINP (%) (67 phr Cold Flex)” value is on record as 58% and the “(67 phr) Cold Flex via Tg” value is given as −72.5.
As to `CCCCC(CC)COC(=O)c1ccc(C(=O)OCC(CC)CCCC)cc1` (stereo not shown) [DOTP, Di-octyltherephthalate], the “Gelation (Visc. vs. Temp.)” value in series [5] is “slower”. Further, the “Plasticize Efficiency % better vs. DINP” value in series [7] is given as −2.8%. The “Dry Blend Process efficiency (mixing time), # min. to dry blend” value in series [1] was determined as 7 min. Further, the Thickening entry in series [6] is given as “less high”. In series [3], the “Delta versus DINP (%) (33 phr Cold Flex)” value was −5%, the “(33 phr) Cold Flex via Tg” value is recorded as −10.9, the “Delta versus DINP (%) (67 phr Cold Flex)” value is reported as −10% and the “(67 phr) Cold Flex via Tg” value is listed as −41.4. Besides, in series [4] (Shore A, plastisol, 50 phr), the “Plasticize Efficiency % Difference vs. DINP” value is reported as −3.75% and the “Plasticize Efficiency % Difference vs. DOA” value is −10.67%. The “Plasticize Efficiency Shore A” value in series [4] was 83 Shore A.
`CCCCCC(CCC)COC(=O)CCC(=O)OCC(CCC)CCCCC` (stereo not shown) [DPHS, di-(2-propylheptyl)succinate]: in series [2], the “Compatibilty: Transparency % Transparent” value is on record as 58.10% and the “delta vs. ref. (transparency)” value is −34.20%.
As to `CC(C)CCCCCCOC(=O)c1ccccc1` [INB, Isononyl Benzoate], in series [5], the “Gelation (Visc. vs. Temp.)” value is given as “faster”. Moreover, in series [6], the “viscosity after 24 h” value is “signif. lower” and the Thickening result is “higher”.
